# Source: PubChem BioAssay AID504444 (National Center for Advancing Translational Sciences (NCATS), 2011)
# Among all 360,000 compounds or so, about 7,500 (2.1%) were called active. The inconclusive results got no clear call from the source; some entries with a clear call stand among them for comparison. The call rests on the fitted dose curve; in most records, active means well fitted inhibition curve with a large enough effect; inconclusive means small, poorly fitted or top-dose-only effect, or effect the other way; inactive means flat fitted curve, though single readings scatter. Potencies of inconclusive entries are doubtful fits and often do not repeat.
# Assay: Nrf2 qHTS screen for inhibitors; further: nearly all actives have a fitted effect of over 60% in size
# Conditions: A549 ARE-Fluc reporter, luciferase luminescence, 18-24 h; series mostly up to 46 µM
# Summary of the method: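 Nrf2 activity is the BugLite luminescence, read 15 min after reagent at room temperature, following CellTiter-Fluor cytotoxicity readout (30 min, 37C). Compound titrations were applied for 18-24 h to 5000 A549 ARE_Fluc cells/well in 5% FBS OPTI-MEM.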
# Potency means the concentration at half of the fitted maximal effect.
row,Structure (SMILES),Potency
1,Cc1csc(NC(=O)c2ccc3c(c2)OCO3)n1,"inconclusive: 7.31 µM [activator, partial curve]"
2,c1ccc(-c2nc3ccccc3nc2-c2ccccn2)nc1,inactive
3,O=C(c1cccs1)N(CCN1CCCCC1)CC1CCCN(C2CCCC2)C1 (stereo not given),"inconclusive: 20.6 µM [activator, single point]"
4,Cc1cccc2nc(CSc3nc4[nH]ncc4c(=O)n3-c3ccccc3Cl)cc(=O)n12,"inconclusive: 20.6 µM [falling, single point]"
5,O=S(=O)(c1ccc2c(c1)OCCO2)N1CCC(c2nc3ccc(Cl)cc3[nH]2)CC1,active: 4.61 µM
6,O=C(Nc1nc(-c2ccco2)c(-c2ccco2)s1)c1ccco1,"inconclusive: 4.61 µM [falling, partial curve, poor fit]"
7,O=C(Nc1ccccc1)c1sc(N2CCOCC2)nc1-c1ccccc1,"inconclusive: 3.66 µM [activator, single point]"
8,CCOc1ccc(NCc2cccn2-c2nnc(N3CCC(C(=O)NCCCN4C(C)CCCC4C)CC3)s2)cc1 (stereo not given),"inconclusive: 6.51 µM [activator, partial curve]"
9,CCOC(=O)[C@H](CCc1ccccc1)N[C@@H](C)C(=O)N1CCC[C@H]1C(=O)O,"inconclusive: 29.1 µM [falling, single point]"
10,COC(=O)c1sc2nc(-c3ccco3)ccc2c1N,"inconclusive: 18.4 µM [activator, single point]"
11,O=S(=O)(c1ccc(Cl)cc1)c1nnn2c1nc(NC1CCCCC1)c1sccc12,"inconclusive: 32.6 µM [falling, single point]"
12,COc1ccc(CCNC(=O)CSc2nc3scc(-c4ccccc4)c3c(=O)[nH]2)cc1,"inconclusive: 29.1 µM [falling, single point]"
13,COc1ccc(CCC(=O)Nc2ccc(Cn3ccnc3)cc2)cc1,inactive
14,O=C1COc2ccc(-c3csc(=Nc4ccc(OC(F)F)cc4)n3CC3CCCO3)cc2N1 (stereo not given),"inconclusive: 11.6 µM [falling, partial curve, poor fit]"
15,O=[N+]([O-])c1ccc(N2CCC(=NOCc3ccc(Cl)cc3)CC2)cc1,"inconclusive: 29.1 µM [falling, single point]"
16,COc1ccc(N2CCc3c(C)nc4c(OC)cccc4c32)cc1,inactive
17,COC(=O)Nc1nc(-c2cc(Cl)ccc2Cl)cs1,"inconclusive: 10.3 µM [falling, partial curve, poor fit]"
18,Cc1cc(-c2ccc3c(c2)COc2c4ccccc4nn2-3)on1,"inconclusive: 0.517 µM [activator, full curve]"
19,Cc1cc(C(=O)NC2CC(C)(C)Cc3c2cnn3-c2ccccc2)n[nH]1 (stereo not given),inactive
20,CC1CCCCN1C(=O)COC(=O)c1n[nH]c2ccccc12 (stereo not given),"inconclusive: 6.51 µM [activator, partial curve]"
21,CN1CCCC1CCNc1ccc2sc3ccccc3c(=O)c2c1 (stereo not given),"inconclusive: 20.6 µM [activator, single point]"
22,CC(C)(C)NC(=O)C(=O)NC(=O)c1c(F)cccc1Cl,"inconclusive: 29.1 µM [activator, single point]"

row,Structure (SMILES),Potency
1,O=C(C(c1ccccc1)c1ccccc1)N1CCN(Cc2ccc(Br)cc2)CC1,"inconclusive: 29.1 µM [falling, single point]"
2,COc1ccccc1Cc1noc(COc2cccc(C)c2C)n1,"inconclusive: 5.8 µM [falling, single point]"
3,O=C(NCc1ccc(F)cc1)c1cc2c(cc1Cl)N1CCCCCC1=NS2(=O)=O,"inconclusive: 0.0651 µM [falling, full curve, poor fit]"
4,Cc1ccc(-c2nnc(Oc3cccc(C)c3)c3ccccc23)cc1,"inconclusive: 4.11 µM [activator, full curve, poor fit]"
5,CC1CCCCN1C(=O)COC(=O)c1ccc(N2CCCC2=O)cc1 (stereo not given),inactive
6,O=C1C=C(c2ccccc2Oc2ccccc2)C[C@@H](c2ccc3c(c2)OCO3)C1,"inconclusive: 29.1 µM [falling, single point]"
7,Cc1ccc2c(c1)c1c(c(=O)n(-c3ccccc3C)c(=O)n1CC(=O)c1ccc(Cl)cc1)n2C,"inconclusive: 29.1 µM [activator, single point]"
8,CC1OC(Nc2ccc(N=Nc3ccccc3)cc2)C(O)C(O)C1O (stereo not given),"inconclusive: 11.6 µM [activator, partial curve, poor fit]"
9,CC/C(C)=N/Nc1nc(-c2cc3cccc(OC)c3oc2=O)cs1,"inconclusive: 4.11 µM [activator, full curve]"
10,COc1ccccc1CN1C[C@@H]2C[C@@H](c3ccc(C)cc3)N3CCC[C@@]23C1=O,inactive
11,CCOc1ccc(CNC(=O)c2ccc3[nH]c(C)c(C)c3c2)cc1OC,"inconclusive: 32.6 µM [activator, single point]"
12,COc1cc(C(=O)Nc2ccc(N3CCN(C(=O)c4ccc(C)cc4)CC3)cc2)cc(OC)c1OC,"inconclusive: 18.4 µM [falling, single point]"
13,CCc1ccc(NC(=O)N(Cc2c[nH]c3ccccc23)C2CCCCC2)cc1,"inconclusive: 29.1 µM [activator, single point]"
14,CCOc1ccc(/C=C2/SC(=O)NC2=S)cc1,"inconclusive: 14.6 µM [activator, partial curve, poor fit]"
15,CCOc1cc(C(=O)Nc2ccc(NC(=O)c3cc4ccccc4o3)c(OC)c2)cc(OCC)c1OCC,inactive
16,COC(=O)Cc1ccc2sc(-c3ccccc3)nc2c1,"inconclusive: 2.59 µM [activator, full curve, poor fit]"
17,NC(=O)c1c(NC(=O)C(=O)N2CCOCC2)sc2c1CCC2,"inconclusive: 20.6 µM [activator, partial curve, poor fit]"
18,O=C(CN1CCN(Cc2ccc(Cl)cc2)CC1)N/N=C/C=C/c1ccccc1[N+](=O)[O-],"inconclusive: 29.1 µM [falling, partial curve, poor fit]"
19,Cn1nc(CC(=O)NCc2ccc(F)cc2)c2ccccc2c1=O,"inconclusive: 18.4 µM [falling, partial curve, poor fit]"
20,CCOc1ccc2nc(N3CCCC(C(=O)Nc4cc(C)ccc4C)C3)sc2c1 (stereo not given),"inconclusive: 0.366 µM [activator, full curve, poor fit]"
21,Cc1ccc(NC(=O)Nc2c[nH]c(=O)[nH]c2=O)c(Cl)c1,"inconclusive: 4.61 µM [activator, partial curve, poor fit]"
22,O=[N+]([O-])c1cc(Br)ccc1NS(=O)(=O)c1ccccc1,"inconclusive: 25.9 µM [falling, partial curve, poor fit]"

row,Structure (SMILES),Potency
1,Cc1ccc(NS(=O)(=O)c2cc(-c3cc(C)no3)ccc2C)c(Cl)c1,"inconclusive: 13 µM [falling, partial curve]"
2,COC(=O)C1C/C(=N\NS(=O)(=O)c2ccc(C)cc2)c2ccsc2C1 (stereo not given),"inconclusive: 20.6 µM [falling, single point]"
3,CN(/N=C/c1cccnc1)C1=NS(=O)(=O)c2ccccc21,"inconclusive: 9.2 µM [falling, partial curve, poor fit]"
4,CCSc1cnnc2ccccc12,"inconclusive: 8.2 µM [falling, partial curve]"
5,Cc1cc(NC(=O)CCc2nc3cccnc3n2Cc2cccs2)ccc1Br,inactive
6,O=c1ccc2cc(S(=O)(=O)Nc3ccc(F)cc3)ccc2o1,"inconclusive: 1.3 µM [falling, partial curve]"
7,O=C(NNc1nc(-c2ccc(Br)cc2)cs1)c1ccco1,"inconclusive: 23.1 µM [falling, single point]"
8,CCOc1ccc(/C=N/NC(=O)Cc2cccs2)cc1,"inconclusive: 20.6 µM [activator, single point]"
9,O=C(CCNC(=O)C1CCN(S(=O)(=O)c2ccc(F)cc2)CC1)NCCc1cccc(F)c1,"inconclusive: 11.6 µM [falling, partial curve, poor fit]"
10,O=C(Oc1ccc(N2C(=O)CCC2=O)cc1)c1ccccc1Cl,"inconclusive: 11.6 µM [falling, partial curve, poor fit]"
11,Cc1cccc(C(=O)N/N=C2\CS(=O)(=O)N(C)c3ccsc32)c1,"inconclusive: 23.1 µM [falling, single point]"
12,N#Cc1ccccc1NC(=O)CN1C(=O)NC2(CCCC2)C1=O,inactive
13,Clc1ccc(CSc2snnc2-c2ccccc2)c(Cl)c1,inactive
14,COCCNC(=O)CSc1nc(-c2ccccc2)cs1,"inconclusive: 20.6 µM [activator, partial curve, poor fit]"
15,Cc1ccc(F)c(C2C3C=CCC(C)C3C(=O)N2Cc2ccccc2)c1 (stereo not given),"inconclusive: 25.9 µM [falling, partial curve, poor fit]"
16,COc1ccc(C(=O)Nc2ccc(C(=O)Nc3cccnc3)cc2)cc1,"inconclusive: 16.4 µM [falling, partial curve]"
17,Cc1nnc(SCC(=O)NCC2CCCO2)n1-c1ccccc1 (stereo not given),inactive
18,N#Cc1nc(Nc2ccc3ccccc3c2)nc(NC2CCCC2)n1,inactive
19,CCN1CCN(Cc2ccc(NC(=O)c3cc(NC(=O)c4ccno4)cc(OC)c3)cc2C(F)(F)F)CC1,inactive
20,COc1ccc(C2Nc3ccc(NC(C)=O)cc3C(=O)N2Cc2cccc(Cl)c2)cc1COc1ccc(NC(C)=O)cc1 (stereo not given),"inconclusive: 10.3 µM [falling, partial curve]"
21,O=S(=O)(NCC(Nc1ccc(Cl)cc1)c1ccccc1)c1ccc(Cl)cc1 (stereo not given),active: 20.6 µM

# In the list so far, these contain a thiophene ring, fused or not.
row,Structure (SMILES),Potency
3,O=C(c1cccs1)N(CCN1CCCCC1)CC1CCCN(C2CCCC2)C1 (stereo not given),"inconclusive: 20.6 µM [activator, single point]"
10,COC(=O)c1sc2nc(-c3ccco3)ccc2c1N,"inconclusive: 18.4 µM [activator, single point]"
11,O=S(=O)(c1ccc(Cl)cc1)c1nnn2c1nc(NC1CCCCC1)c1sccc12,"inconclusive: 32.6 µM [falling, single point]"
12,COc1ccc(CCNC(=O)CSc2nc3scc(-c4ccccc4)c3c(=O)[nH]2)cc1,"inconclusive: 29.1 µM [falling, single point]"
17,NC(=O)c1c(NC(=O)C(=O)N2CCOCC2)sc2c1CCC2,"inconclusive: 20.6 µM [activator, partial curve, poor fit]"
2,COC(=O)C1C/C(=N\NS(=O)(=O)c2ccc(C)cc2)c2ccsc2C1 (stereo not given),"inconclusive: 20.6 µM [falling, single point]"
5,Cc1cc(NC(=O)CCc2nc3cccnc3n2Cc2cccs2)ccc1Br,inactive
8,CCOc1ccc(/C=N/NC(=O)Cc2cccs2)cc1,"inconclusive: 20.6 µM [activator, single point]"
11,Cc1cccc(C(=O)N/N=C2\CS(=O)(=O)N(C)c3ccsc32)c1,"inconclusive: 23.1 µM [falling, single point]"

# 2 of the compounds above, as tab-separated lines.
row	Structure (SMILES)	Potency
15	CCOc1cc(C(=O)Nc2ccc(NC(=O)c3cc4ccccc4o3)c(OC)c2)cc(OCC)c1OCC	inactive
4	CCSc1cnnc2ccccc12	inconclusive: 8.2 µM [falling, partial curve]
